PMC12462987
No constants are given. Whether binding was seen depends on the method and setting. For part of these data: In cells and extracts the contact can be indirect. Some results given as binding are weak or reduced against the parent protein; the word gives no strength.

Chains of the proteins cited; added tags and fusions are not shown. Lines headed by an entry give the natural chain unless they say otherwise; changes in a name come on top. Residues count along the entry.
UniProt P43268: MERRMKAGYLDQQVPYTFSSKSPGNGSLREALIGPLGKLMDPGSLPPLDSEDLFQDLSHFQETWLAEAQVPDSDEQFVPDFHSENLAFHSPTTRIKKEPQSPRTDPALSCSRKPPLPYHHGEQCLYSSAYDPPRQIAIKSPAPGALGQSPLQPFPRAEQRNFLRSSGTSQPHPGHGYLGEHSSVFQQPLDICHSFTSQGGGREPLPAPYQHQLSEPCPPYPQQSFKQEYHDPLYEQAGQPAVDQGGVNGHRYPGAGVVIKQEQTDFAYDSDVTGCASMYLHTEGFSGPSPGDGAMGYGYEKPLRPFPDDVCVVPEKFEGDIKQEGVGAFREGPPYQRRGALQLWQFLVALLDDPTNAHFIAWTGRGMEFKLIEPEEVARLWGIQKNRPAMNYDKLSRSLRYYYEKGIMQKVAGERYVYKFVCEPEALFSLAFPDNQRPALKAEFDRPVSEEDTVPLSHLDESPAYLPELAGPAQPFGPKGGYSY
UniProt P49736: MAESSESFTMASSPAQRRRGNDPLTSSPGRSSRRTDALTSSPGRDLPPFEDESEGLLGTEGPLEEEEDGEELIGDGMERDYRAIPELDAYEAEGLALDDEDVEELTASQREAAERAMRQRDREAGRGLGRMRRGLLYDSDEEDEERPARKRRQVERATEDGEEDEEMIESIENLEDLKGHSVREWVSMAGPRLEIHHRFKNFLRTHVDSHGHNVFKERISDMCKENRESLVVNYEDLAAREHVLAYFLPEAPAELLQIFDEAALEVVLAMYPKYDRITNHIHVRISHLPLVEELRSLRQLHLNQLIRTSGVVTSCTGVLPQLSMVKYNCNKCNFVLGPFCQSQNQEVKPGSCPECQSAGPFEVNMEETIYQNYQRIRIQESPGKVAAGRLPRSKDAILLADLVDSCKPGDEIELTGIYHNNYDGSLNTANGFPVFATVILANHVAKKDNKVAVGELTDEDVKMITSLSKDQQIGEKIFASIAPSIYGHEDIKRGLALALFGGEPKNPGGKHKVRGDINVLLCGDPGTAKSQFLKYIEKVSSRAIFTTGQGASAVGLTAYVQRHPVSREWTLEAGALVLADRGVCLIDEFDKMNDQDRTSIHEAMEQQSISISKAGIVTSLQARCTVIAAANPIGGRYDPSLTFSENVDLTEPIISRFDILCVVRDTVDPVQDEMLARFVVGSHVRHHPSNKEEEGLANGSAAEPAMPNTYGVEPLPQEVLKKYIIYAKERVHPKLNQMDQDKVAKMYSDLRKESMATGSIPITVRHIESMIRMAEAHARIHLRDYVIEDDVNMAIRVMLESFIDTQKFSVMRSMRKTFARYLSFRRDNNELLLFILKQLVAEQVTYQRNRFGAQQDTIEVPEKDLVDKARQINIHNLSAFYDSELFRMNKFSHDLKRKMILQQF
UniProt Q08945: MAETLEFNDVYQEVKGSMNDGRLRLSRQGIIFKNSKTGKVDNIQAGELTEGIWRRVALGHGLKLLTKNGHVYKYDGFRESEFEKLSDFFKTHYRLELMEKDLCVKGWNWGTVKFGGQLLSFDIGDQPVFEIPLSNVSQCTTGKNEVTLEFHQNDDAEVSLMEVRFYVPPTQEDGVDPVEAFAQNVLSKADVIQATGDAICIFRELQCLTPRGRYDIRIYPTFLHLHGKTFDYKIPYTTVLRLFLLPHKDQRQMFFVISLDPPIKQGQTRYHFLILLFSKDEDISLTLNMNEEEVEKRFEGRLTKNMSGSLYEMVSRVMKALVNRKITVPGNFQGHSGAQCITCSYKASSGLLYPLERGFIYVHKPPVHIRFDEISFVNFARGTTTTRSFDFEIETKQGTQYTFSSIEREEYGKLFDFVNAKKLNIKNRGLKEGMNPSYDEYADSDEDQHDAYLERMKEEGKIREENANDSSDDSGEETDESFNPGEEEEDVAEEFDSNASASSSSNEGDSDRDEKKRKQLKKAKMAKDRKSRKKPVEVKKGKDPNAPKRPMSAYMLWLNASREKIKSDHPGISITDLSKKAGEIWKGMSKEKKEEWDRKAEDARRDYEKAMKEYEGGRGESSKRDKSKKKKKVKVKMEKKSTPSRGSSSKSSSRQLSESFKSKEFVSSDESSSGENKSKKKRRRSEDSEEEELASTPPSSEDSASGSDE
UniProt Q9Y5B9, residues 1-510: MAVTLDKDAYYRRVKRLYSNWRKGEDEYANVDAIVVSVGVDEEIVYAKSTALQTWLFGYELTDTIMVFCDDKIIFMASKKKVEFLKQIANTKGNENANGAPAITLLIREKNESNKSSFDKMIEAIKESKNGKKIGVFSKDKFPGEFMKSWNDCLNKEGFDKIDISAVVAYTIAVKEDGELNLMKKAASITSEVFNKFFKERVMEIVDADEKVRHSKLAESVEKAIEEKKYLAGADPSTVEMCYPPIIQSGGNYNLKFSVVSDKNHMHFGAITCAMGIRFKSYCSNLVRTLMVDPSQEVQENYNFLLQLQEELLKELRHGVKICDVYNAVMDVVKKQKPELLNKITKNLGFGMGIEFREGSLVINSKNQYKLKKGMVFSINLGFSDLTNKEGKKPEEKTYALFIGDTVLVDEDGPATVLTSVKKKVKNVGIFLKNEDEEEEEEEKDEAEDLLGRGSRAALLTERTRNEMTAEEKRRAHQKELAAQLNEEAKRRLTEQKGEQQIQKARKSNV

What was measured:
[1] = target: His-ETV4, purified protein (UniProt P43268); experiment: pull-down; purified proteins mixed with 10 µg His-ETV4 and Ni-NTA agarose; three washes; Western blot with anti-tag antibody; both purified
[2] = target: His-ETV4, purified protein (UniProt P43268); experiment: pull-down; 20 µg purified His-histone H3 or His-ETV4 on Ni-NTA His-bind resin incubated with RIPA lysates of A549 or H1299 cells, 4 °C, 6 h; Western blot; only the target purified
[3] = target: Flag-tagged full-length ETV4 (FL, 1-484aa) (UniProt P43268); experiment: co-IP; HEK293T transfected with one tagged protein (Flag-ETV4 constructs, HA-MCM2 constructs or His-histone H3); anti-Flag, anti-HA or anti-His IP from RIPA lysate; immunoblot of the partner proteins of the lysate
[4] = target: HA-tagged MCM2-FL (UniProt P49736); experiment: as above
[5] = target: ETV4 (ETS transcription factor ETV4), endogenous (human (endogenous in A549, H1299, HEK293T)) (UniProt P43268); experiment: co-IP; IP of the endogenous protein (anti-ETV4, anti-SSRP1 or anti-SUPT16H) from whole-cell RIPA lysates of A549 and H1299 cells, 4 °C overnight, Protein A/G Plus-Agarose, immunoblot; also cells synchronised by double thymidine block and released
[6] = target: ETV4 (ETS transcription factor ETV4), endogenous (human (endogenous in A549, H1299, HEK293T)) (UniProt P43268); experiment: co-IP; IP of endogenous ETV4 from chromatin-bound (Chrom.) proteins of A549 and H1299 cells, immunoblot
[7] = target: ETV4 (ETS transcription factor ETV4), endogenous (human (endogenous in A549, H1299, HEK293T)) (UniProt P43268); experiment: co-IP; IP of the endogenous protein (anti-ETV4, anti-SSRP1 or anti-SUPT16H) from whole-cell RIPA lysates of A549 and H1299 cells, 4 °C overnight, Protein A/G Plus-Agarose, immunoblot; also cells synchronised by double thymidine block and released; remark: listed apart in the source

| Molecule | binding [1] | binding [6] | binding [7] | further results |
| --- | --- | --- | --- | --- |
| Flag-tag MCM2 (1-440aa), purified protein (from UniProt P49736 1-440) (domain or fragment) | binds | – | – | – |
| Flag-tag SSRP1, purified protein (from UniProt Q08945 1-709) | binds | – | – | – |
| GST-tag SUPT16H (1-510aa), purified protein (from UniProt Q9Y5B9 1-510) (domain or fragment) | binds | – | – | – |
| SSRP1 (FACT subunit), endogenous (from UniProt Q08945 1-709) | – | – | – | binding [2]: binds; binding [3]: binds; binding [4]: binds; binding [5]: binds |
| MCM3, endogenous (protein, UniProt P25205 1-808) MAGTVVLDDVELREAQRDYLDFLDDEEDQGIYQSKVRELISDNQYRLIVNVNDLRRKNEKRANRLLNNAFEELVAFQRALKDFVASIDATYAKQYEEFYVGLEGSFGSKHVSPRTLTSCFLSCVVCVEGIVTKCSLVRPKVVRSVHYCPATKKTIERRYSDLTTLVAFPSSSVYPTKDEENNPLETEYGLSVYKDHQTITIQEMPEKAPAGQLPRSVDVILDDDLVDKAKPGDRVQVVGTYRCLPGKKGGYTSGTFRTVLIACNVKQMSKDAQPSFSAEDIAKIKKFSKTRSKDIFDQLAKSLAPSIHGHDYVKKAILCLLLGGVERDLENGSHIRGDINILLIGDPSVAKSQLLRYVLCTAPRAIPTTGRGSSGVGLTAAVTTDQETGERRLEAGAMVLADRGVVCIDEFDKMSDMDRTAIHEVMEQGRVTIAKAGIHARLNARCSVLAAANPVYGRYDQYKTPMENIGLQDSLLSRFDLLFIMLDQMDPEQDREISDHVLRMHRYRAPGEQDGDAMPLGSAVDILATDDPNFSQEDQQDTQIYEKHDNLLHGTKKKKEKMVSAAFMKKYIHVAKIIKPVLTQESATYIAEEYSRLRSQDSMSSDTARTSPVTARTLETLIRLATAHAKARMSKTVDLQDAEEAVELVQYAYFKKVLEKEKKRKKRSEDESETEDEEEKSQEDQEQKRKRRKTRQPDAKDGDSYDPYDFSDTEEEMPQVHTPKTADSQETKESQKVELSESRLKAFKVALLDVFREAHAQSIGMNRLTESINRDSEEPFSSVEIQAALSKMQDDNQVMVSEGIIFLI | – | binds | binds | – |
| MCM5, endogenous (protein, UniProt P33992 1-734) MSGFDDPGIFYSDSFGGDAQADEGQARKSQLQRRFKEFLRQYRVGTDRTGFTFKYRDELKRHYNLGEYWIEVEMEDLASFDEDLADYLYKQPAEHLQLLEEAAKEVADEVTRPRPSGEEVLQDIQVMLKSDASPSSIRSLKSDMMSHLVKIPGIIIAASAVRAKATRISIQCRSCRNTLTNIAMRPGLEGYALPRKCNTDQAGRPKCPLDPYFIMPDKCKCVDFQTLKLQELPDAVPHGEMPRHMQLYCDRYLCDKVVPGNRVTIMGIYSIKKFGLTTSRGRDRVGVGIRSSYIRVLGIQVDTDGSGRSFAGAVSPQEEEEFRRLAALPNVYEVISKSIAPSIFGGTDMKKAIACLLFGGSRKRLPDGLTRRGDINLLMLGDPGTAKSQLLKFVEKCSPIGVYTSGKGSSAAGLTASVMRDPSSRNFIMEGGAMVLADGGVVCIDEFDKMREDDRVAIHEAMEQQTISIAKAGITTTLNSRCSVLAAANSVFGRWDETKGEDNIDFMPTILSRFDMIFIVKDEHNEERDVMLAKHVITLHVSALTQTQAVEGEIDLAKLKKFIAYCRVKCGPRLSAEAAEKLKNRYIIMRSGARQHERDSDRRSSIPITVRQLEAIVRIAEALSKMKLQPFATEADVEEALRLFQVSTLDAALSGTLSGVEGFTSQEDQEMLSRIEKQLKRRFAIGSQVSEHSIIKDFTKQKYPEHAIHKVLQLMLRRGEIQHRMQRKVLYRLK | – | binds | binds | – |
| MCM6, endogenous (protein, UniProt Q14566 1-821) MDLAAAAEPGAGSQHLEVRDEVAEKCQKLFLDFLEEFQSSDGEIKYLQLAEELIRPERNTLVVSFVDLEQFNQQLSTTIQEEFYRVYPYLCRALKTFVKDRKEIPLAKDFYVAFQDLPTRHKIRELTSSRIGLLTRISGQVVRTHPVHPELVSGTFLCLDCQTVIRDVEQQFKYTQPNICRNPVCANRRRFLLDTNKSRFVDFQKVRIQETQAELPRGSIPRSLEVILRAEAVESAQAGDKCDFTGTLIVVPDVSKLSTPGARAETNSRVSGVDGYETEGIRGLRALGVRDLSYRLVFLACCVAPTNPRFGGKELRDEEQTAESIKNQMTVKEWEKVFEMSQDKNLYHNLCTSLFPTIHGNDEVKRGVLLMLFGGVPKTTGEGTSLRGDINVCIVGDPSTAKSQFLKHVEEFSPRAVYTSGKASSAAGLTAAVVRDEESHEFVIEAGALMLADNGVCCIDEFDKMDVRDQVAIHEAMEQQTISITKAGVKATLNARTSILAAANPISGHYDRSKSLKQNINLSAPIMSRFDLFFILVDECNEVTDYAIARRIVDLHSRIEESIDRVYSLDDIRRYLLFARQFKPKISKESEDFIVEQYKHLRQRDGSGVTKSSWRITVRQLESMIRLSEAMARMHCCDEVQPKHVKEAFRLLNKSIIRVETPDVNLDQEEEIQMEVDEGAGGINGHADSPAPVNGINGYNEDINQESAPKASLRLGFSEYCRISNLIVLHLRKVEEEEDESALKRSELVNWYLKEIESEIDSEEELINKKRIIEKVIHRLTHYDHVLIELTQAGLKGSTEGSESYEEDPYLVVNPNYLLED | – | binds | binds | – |
| ORC3, endogenous (protein, UniProt Q9UBD5 1-711) MATSSMSKGCFVFKPNSKKRKISLPIEDYFNKGKNEPEDSKLRFETYQLIWQQMKSENERLQEELNKNLFDNLIEFLQKSHSGFQKNSRDLGGQIKLREIPTAALVLGVNVTDHDLTFGSLTEALQNNVTPYVVSLQAKDCPDMKHFLQKLISQLMDCCVDIKSKEEESVHVTQRKTHYSMDSLSSWYMTVTQKTDPKMLSKKRTTSSQWQSPPVVVILKDMESFATKVLQDFIIISSQHLHEFPLILIFGIATSPIIIHRLLPHAVSSLLCIELFQSLSCKEHLTTVLDKLLLTTQFPFKINEKVLQVLTNIFLYHDFSVQNFIKGLQLSLLEHFYSQPLSVLCCNLPEAKRRINFLSNNQCENIRRLPSFRRYVEKQASEKQVALLTNERYLKEETQLLLENLHVYHMNYFLVLRCLHKFTSSLPKYPLGRQIRELYCTCLEKNIWDSEEYASVLQLLRMLAKDELMTILEKCFKVFKSYCENHLGSTAKRIEEFLAQFQSLDETKEEEDASGSQPKGLQKTDLYHLQKSLLEMKELRRSKKQTKFEVLRENVVNFIDCLVREYLLPPETQPLHEVVYFSAAHALREHLNAAPRIALHTALNNPYYYLKNEALKSEEGCIPNIAPDICIAYKLHLECSRLINLVDWSEAFATVVTAAEKMDANSATSEEMNEIIHARFIRAVSELELLGFIKPTKQKTDHVARLTWGGC | – | – | binds | – |
| ORC2, endogenous (protein, UniProt Q13416 1-577) MSKPELKEDKMLEVHFVGDDDVLNHILDREGGAKLKKERAQLLVNPKKIIKKPEYDLEEDDQEVLKDQNYVEIMGRDVQESLKNGSATGGGNKVYSFQNRKHSEKMAKLASELAKTPQKSVSFSLKNDPEITINVPQSSKGHSASDKVQPKNNDKSEFLSTAPRSLRKRLIVPRSHSDSESEYSASNSEDDEGVAQEHEEDTNAVIFSQKIQAQNRVVSAPVGKETPSKRMKRDKTSDLVEEYFEAHSSSKVLTSDRTLQKLKRAKLDQQTLRNLLSKVSPSFSAELKQLNQQYEKLFHKWMLQLHLGFNIVLYGLGSKRDLLERFRTTMLQDSIHVVINGFFPGISVKSVLNSITEEVLDHMGTFRSILDQLDWIVNKFKEDSSLELFLLIHNLDSQMLRGEKSQQIIGQLSSLHNIYLIASIDHLNAPLMWDHAKQSLFNWLWYETTTYSPYTEETSYENSLLVKQSGSLPLSSLTHVLRSLTPNARGIFRLLIKYQLDNQDNPSYIGLSFQDFYQQCREAFLVNSDLTLRAQLTEFRDHKLIRTKKGTDGVEYLLIPVDNGTLTDFLEKEEEEA | – | – | no binding | – |
